Data reported in PMC11417401.
Results are given in words; binding and its absence hold for the method and conditions named. In cells and extracts the contact can be indirect. Some entries that bind do so weakly or less than the wild type.

By UniProt entry, the sequences of proteins in these tests, tags left out.
UniProt Q7Z333: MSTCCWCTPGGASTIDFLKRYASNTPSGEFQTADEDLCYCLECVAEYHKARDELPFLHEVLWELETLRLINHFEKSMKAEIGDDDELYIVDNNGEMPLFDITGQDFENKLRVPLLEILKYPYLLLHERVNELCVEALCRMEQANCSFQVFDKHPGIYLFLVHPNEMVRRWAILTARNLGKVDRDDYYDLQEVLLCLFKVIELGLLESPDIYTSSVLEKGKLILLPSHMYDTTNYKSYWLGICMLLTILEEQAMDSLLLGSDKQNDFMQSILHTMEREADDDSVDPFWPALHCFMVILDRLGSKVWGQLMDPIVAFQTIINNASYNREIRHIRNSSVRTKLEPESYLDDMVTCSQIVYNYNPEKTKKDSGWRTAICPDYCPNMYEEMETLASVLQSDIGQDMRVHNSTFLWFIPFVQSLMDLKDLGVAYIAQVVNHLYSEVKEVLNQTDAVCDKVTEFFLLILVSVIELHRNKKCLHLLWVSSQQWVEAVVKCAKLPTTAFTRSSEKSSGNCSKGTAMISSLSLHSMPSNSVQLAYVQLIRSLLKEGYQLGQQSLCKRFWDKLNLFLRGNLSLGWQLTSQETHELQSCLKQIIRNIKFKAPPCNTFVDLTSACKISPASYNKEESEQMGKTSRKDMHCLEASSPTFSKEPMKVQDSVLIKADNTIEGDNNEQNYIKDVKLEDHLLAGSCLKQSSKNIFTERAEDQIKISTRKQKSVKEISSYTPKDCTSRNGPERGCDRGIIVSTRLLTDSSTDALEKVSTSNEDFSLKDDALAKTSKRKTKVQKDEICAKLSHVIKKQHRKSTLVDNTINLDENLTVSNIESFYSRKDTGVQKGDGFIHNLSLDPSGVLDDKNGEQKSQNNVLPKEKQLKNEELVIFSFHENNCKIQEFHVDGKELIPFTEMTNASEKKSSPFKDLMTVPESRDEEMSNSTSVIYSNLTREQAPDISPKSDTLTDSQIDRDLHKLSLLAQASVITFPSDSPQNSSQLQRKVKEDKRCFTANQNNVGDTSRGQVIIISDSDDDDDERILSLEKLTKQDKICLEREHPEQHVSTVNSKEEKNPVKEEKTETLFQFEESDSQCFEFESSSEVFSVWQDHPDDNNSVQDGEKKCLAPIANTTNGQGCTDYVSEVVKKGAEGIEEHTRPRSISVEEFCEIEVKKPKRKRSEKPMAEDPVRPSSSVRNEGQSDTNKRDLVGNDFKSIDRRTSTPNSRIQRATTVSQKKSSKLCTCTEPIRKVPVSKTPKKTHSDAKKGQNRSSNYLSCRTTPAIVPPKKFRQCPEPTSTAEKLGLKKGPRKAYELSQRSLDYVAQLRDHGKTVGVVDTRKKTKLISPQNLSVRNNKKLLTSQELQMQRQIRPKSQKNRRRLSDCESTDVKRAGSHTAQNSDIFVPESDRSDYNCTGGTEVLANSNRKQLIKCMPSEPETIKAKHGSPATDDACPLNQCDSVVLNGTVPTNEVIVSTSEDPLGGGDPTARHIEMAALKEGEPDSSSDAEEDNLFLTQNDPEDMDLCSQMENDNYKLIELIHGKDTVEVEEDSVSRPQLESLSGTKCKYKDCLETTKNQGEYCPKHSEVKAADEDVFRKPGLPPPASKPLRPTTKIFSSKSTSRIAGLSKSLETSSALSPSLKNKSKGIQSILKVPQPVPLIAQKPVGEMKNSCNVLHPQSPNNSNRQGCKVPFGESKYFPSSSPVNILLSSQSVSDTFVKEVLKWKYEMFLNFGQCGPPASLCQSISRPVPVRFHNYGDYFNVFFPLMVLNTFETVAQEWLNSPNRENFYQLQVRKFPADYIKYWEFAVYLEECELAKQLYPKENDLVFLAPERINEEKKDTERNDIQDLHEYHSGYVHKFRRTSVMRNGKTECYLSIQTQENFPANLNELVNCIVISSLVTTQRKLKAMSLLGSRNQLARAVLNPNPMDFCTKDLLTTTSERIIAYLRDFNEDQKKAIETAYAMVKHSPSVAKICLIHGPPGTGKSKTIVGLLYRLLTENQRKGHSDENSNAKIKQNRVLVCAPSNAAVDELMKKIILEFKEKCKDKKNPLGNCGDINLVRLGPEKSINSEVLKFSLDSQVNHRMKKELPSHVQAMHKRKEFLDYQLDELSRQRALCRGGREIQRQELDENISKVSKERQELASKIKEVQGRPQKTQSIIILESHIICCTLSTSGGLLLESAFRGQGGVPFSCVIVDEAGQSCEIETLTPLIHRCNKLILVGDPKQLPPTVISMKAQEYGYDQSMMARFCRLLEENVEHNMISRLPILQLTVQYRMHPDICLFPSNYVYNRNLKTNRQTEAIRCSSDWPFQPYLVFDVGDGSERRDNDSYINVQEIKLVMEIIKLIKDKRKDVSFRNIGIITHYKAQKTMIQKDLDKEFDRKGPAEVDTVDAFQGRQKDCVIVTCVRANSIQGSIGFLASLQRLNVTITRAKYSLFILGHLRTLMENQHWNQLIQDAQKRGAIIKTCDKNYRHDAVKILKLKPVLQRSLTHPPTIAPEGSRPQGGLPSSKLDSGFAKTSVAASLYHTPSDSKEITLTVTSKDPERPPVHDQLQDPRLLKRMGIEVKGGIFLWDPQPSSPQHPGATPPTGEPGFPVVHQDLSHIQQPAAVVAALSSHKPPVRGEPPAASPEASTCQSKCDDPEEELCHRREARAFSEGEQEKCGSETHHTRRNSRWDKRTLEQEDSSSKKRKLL
UniProt Q92841: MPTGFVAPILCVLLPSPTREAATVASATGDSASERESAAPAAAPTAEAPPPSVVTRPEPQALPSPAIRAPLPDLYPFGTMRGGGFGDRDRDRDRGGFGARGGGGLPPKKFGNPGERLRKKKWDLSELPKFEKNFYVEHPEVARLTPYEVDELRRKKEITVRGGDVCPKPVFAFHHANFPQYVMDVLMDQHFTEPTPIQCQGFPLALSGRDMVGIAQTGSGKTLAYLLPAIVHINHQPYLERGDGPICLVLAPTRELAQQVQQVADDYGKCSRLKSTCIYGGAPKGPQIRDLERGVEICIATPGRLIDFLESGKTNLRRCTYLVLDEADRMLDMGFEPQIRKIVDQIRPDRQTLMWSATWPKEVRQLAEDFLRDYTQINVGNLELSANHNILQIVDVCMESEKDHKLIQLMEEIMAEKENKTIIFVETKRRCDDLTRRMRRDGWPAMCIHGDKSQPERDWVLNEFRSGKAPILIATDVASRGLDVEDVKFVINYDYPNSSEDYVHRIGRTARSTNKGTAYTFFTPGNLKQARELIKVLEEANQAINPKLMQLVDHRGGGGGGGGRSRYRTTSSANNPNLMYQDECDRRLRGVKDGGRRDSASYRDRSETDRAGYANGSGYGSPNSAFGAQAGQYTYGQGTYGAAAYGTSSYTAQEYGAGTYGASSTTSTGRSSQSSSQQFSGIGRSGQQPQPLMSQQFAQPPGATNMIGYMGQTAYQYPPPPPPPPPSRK

Target: Senataxin (SETX) (human (endogenous in HEK293 and U2OS)) (UniProt Q7Z333)
Assay: co-IP; endogenous SETX immunoprecipitated with rabbit polyclonal anti-SETX antibody from HEK293 cell extracts (untreated/DMSO or 100 nM CPT for 1 h), extracts treated with benzonase; IP lysis buffer 50 mM Tris-HCl pH 7.4, 150 mM NaCl, 1% NP-40, 0.2% Triton X-100; 4°C; western blot for DDX17; rabbit IgG as control

Question: “DDX17 isoform p82 (from UniProt Q92841 1-729)” was tested. Which binding did it give?
Answer: The binding was “binds”.
